Experimental data from article PMC3128601.
No constants are given. Whether binding was seen depends on the method and setting. Binding calls can cover weak binding; strength is not graded here. For part of these data: Where a sequence is shown, tags or fusion partners need not be part of it. For part of these data: In cells and extracts the contact can be indirect. Each block holds one molecule with its values, some of them ahead of it.

Key:
[1] = target: T1, C-terminal cytoplasmic domain of calnexin (C-tail), fused to the GAL4 DNA-binding domain (pGBKT7-CNX-C) (mouse) (UniProt P35564); experiment: two-hybrid; pGBKT7 with calnexin C-tail and pGADT7 with SGIP1 or SGIP1 domains in strain AH109; growth on SD/-Leu/-Trp/-His/-Ade and filter lift assays
T1 sequence: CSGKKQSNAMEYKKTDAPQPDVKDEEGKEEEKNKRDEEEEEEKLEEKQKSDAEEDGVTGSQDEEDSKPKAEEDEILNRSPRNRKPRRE

GFP-SGIP1 (mouse) = experiment: co-IP; N1E-115 cells transfected with GFP-SGIP1 or GFP, lysed in RIPA buffer (50 mM Tris pH 7.4, 150 mM NaCl, 1% NP-40, 0.25% sodium deoxycholate, 1 mM EDTA); immunoprecipitation with anti-GFP, Western blot with anti-calnexin

binding [1]: binds
Molecule: SGIP1 Adap-Comp-Sub domain (amino acid residues 647-826) in pGADT7 (mouse) (domain or fragment)

binding [1]: binds
Molecule: SGIP1 in pGADT7 (yeast two-hybrid prey) (mouse)

binding (GFP-SGIP1 (mouse)): binds
B1: calnexin (endogenous) (protein, UniProt P35564 21-591)
chain: HDGHDDDAIDIEDDLDDVIEEVEDSKSKSDASTPPSPKVTYKAPVPTGEVYFADSFDRGSLSGWILSKAKKDDTDDEIAKYDGKWEVDEMKETKLPGDKGLVLMSRAKHHAISAKLNKPFLFDTKPLIVQYEVNFQNGIECGGAYVKLLSKTAELSLDQFHDKTPYTIMFGPDKCGEDYKLHFIFRHKNPKTGVYEEKHAKRPDADLKTYFTDKKTHLYTLILNPDNSFEILVDQSVVNSGNLLNDMTPPVNPSREIEDPEDRKPEDWDERPKIADPDAVKPDDWDEDAPSKIPDEEATKPEGWLDDEPEYIPDPDAEKPEDWDEDMDGEWEAPQIANPKCESAPGCGVWQRPMIDNPNYKGKWKPPMIDNPNYQGIWKPRKIPNPDFFEDLEPFKMTPFSAIGLELWSMTSDIFFDNFIISGDRRVVDDWANDGWGLKKAADGAAEPGVVLQMLEAAEERPWLWVVYILTVALPVFLVILFCCSGKKQSNAMEYKKTDAPQPDVKDEEGKEEEKNKRDEEEEEEKLEEKQKSDAEEDGVTGSQDEEDSKPKAEEDEILNRSPRNRKPRRE
